# Source: PubChem BioAssay AID1259405 (NCATS, 2018)
# Screen: 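Knock-downs that lift recombinant protein yield in hamster ovary cells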 (primary screen)
# Cell system: Chinese hamster CHO-K1 ovary cells with stable secreted eGFP expression
# Knock-down reagent: single siRNA against mouse genes, 0.8 pmol siRNA per well (2 µl of 400 nM stock)
# Time to read-out: 3 days
# Measurement: 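Per-well intracellular GFP measured by laser scanning cytometry, plus viability from ATP luminescence, each relative to plate median of non-targeting control wells, in %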
# Scale: GFP, % of control: higher = more GFP per well, higher productivity; viability (ATP), % of control: higher = more viable cells (more ATP)
# Rule for the call: 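a knock-down is called active if GFP reaches 120% or more of non-targeting control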
# The whole screen tested about 50,000 reagents; below is a part drawn at random. About 4,000 of them (8%) were called active. 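Mouse siRNA library applied to hamster cells; one well for each siRNA.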 The numbers tell different reagents against one gene apart. Reagent sequences are not shown.
The first 8 entries as a preview:
gene,reagent no.,"GFP, % of control","viability (ATP), % of control",activity call
Znrd2 (zinc ribbon domain containing 2),1,90.6,57.8,inactive
Znrd2 (zinc ribbon domain containing 2),2,57.9,64.1,inactive
Znrd2 (zinc ribbon domain containing 2),3,78.6,54.6,inactive
Rtp3 (receptor transporter protein 3),1,48.1,49.6,inactive
Rtp3 (receptor transporter protein 3),2,100,111,inactive
Rtp3 (receptor transporter protein 3),3,124,106,active
Gchfr (GTP cyclohydrolase I feedback regulator),1,48.4,78.2,inactive
Gchfr (GTP cyclohydrolase I feedback regulator),2,87.8,59.5,inactive

The listing, repeating the preview:
gene,reagent no.,"GFP, % of control","viability (ATP), % of control",activity call
Znrd2 (zinc ribbon domain containing 2),1,90.6,57.8,inactive
Znrd2 (zinc ribbon domain containing 2),2,57.9,64.1,inactive
Znrd2 (zinc ribbon domain containing 2),3,78.6,54.6,inactive
Rtp3 (receptor transporter protein 3),1,48.1,49.6,inactive
Rtp3 (receptor transporter protein 3),2,100,111,inactive
Rtp3 (receptor transporter protein 3),3,124,106,active
Gchfr (GTP cyclohydrolase I feedback regulator),1,48.4,78.2,inactive
Gchfr (GTP cyclohydrolase I feedback regulator),2,87.8,59.5,inactive
Nkx2-4 (NK2 homeobox 4),1,55.5,62,inactive
Nkx2-4 (NK2 homeobox 4),2,66.9,79.1,inactive
Nkx2-4 (NK2 homeobox 4),3,66.6,80.3,inactive
"Nlrp10 (NLR family, pyrin domain containing 10)",1,59.6,66.5,inactive
"Nlrp10 (NLR family, pyrin domain containing 10)",2,70.9,73,inactive
"Nlrp10 (NLR family, pyrin domain containing 10)",3,60.1,47.6,inactive
Or2t49 (olfactory receptor family 2 subfamily T member 49),1,34.8,52,inactive
Or2t49 (olfactory receptor family 2 subfamily T member 49),2,79.2,79.6,inactive
Or2t49 (olfactory receptor family 2 subfamily T member 49),3,53.4,74.2,inactive
Taok1 (TAO kinase 1),1,98.5,82.2,inactive
Hspb3 (heat shock protein family B (small) member 3),1,115,24.8,inactive
Hspb3 (heat shock protein family B (small) member 3),2,120,96.7,inactive
Hspb3 (heat shock protein family B (small) member 3),3,87.5,65.1,inactive
Ifna11 (interferon alpha 11),1,99.3,57.2,inactive
Ifna11 (interferon alpha 11),2,111,66.2,inactive
Ifna11 (interferon alpha 11),3,88.5,73.4,inactive
Eif1a (eukaryotic translation initiation factor 1A),1,64,101,inactive
Eif1a (eukaryotic translation initiation factor 1A),2,73.6,91.6,inactive
Eif1a (eukaryotic translation initiation factor 1A),3,38.2,68.3,inactive
Gdpd2 (glycerophosphodiester phosphodiesterase domain containing 2),1,84.4,94.9,inactive
Gdpd2 (glycerophosphodiester phosphodiesterase domain containing 2),2,117,72.7,inactive
Gdpd2 (glycerophosphodiester phosphodiesterase domain containing 2),3,40.7,54.9,inactive
Pogz (pogo transposable element with ZNF domain),1,164,144,active
Pogz (pogo transposable element with ZNF domain),2,63.6,69.3,inactive
Cggbp1 (CGG triplet repeat binding protein 1),1,52.3,76.8,inactive
Cggbp1 (CGG triplet repeat binding protein 1),2,54.5,82.4,inactive
Cggbp1 (CGG triplet repeat binding protein 1),3,82.5,109,inactive
Tpcn1 (two pore channel 1),1,69.5,86.9,inactive
Tpcn1 (two pore channel 1),2,46.6,60.6,inactive
Tpcn1 (two pore channel 1),3,80.8,68,inactive
"Nsmce1 (NSE1 homolog, SMC5-SMC6 complex component)",1,92.7,76.5,inactive
"Nsmce1 (NSE1 homolog, SMC5-SMC6 complex component)",2,131,86.1,active
"Nsmce1 (NSE1 homolog, SMC5-SMC6 complex component)",3,80.8,69.8,inactive
Abraxas2 (BRISC complex subunit),1,64.5,89.1,inactive
Abraxas2 (BRISC complex subunit),2,58,62.6,inactive
Abraxas2 (BRISC complex subunit),3,80,111,inactive
Or5d38 (olfactory receptor family 5 subfamily D member 38),1,75.7,60,inactive
Or5d38 (olfactory receptor family 5 subfamily D member 38),2,86.7,80.3,inactive
Or5d38 (olfactory receptor family 5 subfamily D member 38),3,216,66.3,active
Minar2 (membrane integral NOTCH2 associated receptor 2),1,85.5,78.2,inactive
Minar2 (membrane integral NOTCH2 associated receptor 2),2,43.8,68.6,inactive
Minar2 (membrane integral NOTCH2 associated receptor 2),3,57.5,74,inactive
4933430I17Rik (RIKEN cDNA 4933430I17 gene),1,27.7,59,inactive
4933430I17Rik (RIKEN cDNA 4933430I17 gene),2,63.5,86.6,inactive
4933430I17Rik (RIKEN cDNA 4933430I17 gene),3,107,126,inactive
"Bfsp2 (beaded filament structural protein 2, phakinin)",1,85.4,93.9,inactive
"Bfsp2 (beaded filament structural protein 2, phakinin)",2,66.8,65.8,inactive
"Bfsp2 (beaded filament structural protein 2, phakinin)",3,45.3,71.8,inactive
Eif2s3x,1,62.5,65.2,inactive
Eif2s3x,2,35.6,41.4,inactive
Eif2s3x,3,50.3,51.5,inactive
Or4k35 (olfactory receptor family 4 subfamily K member 35),1,68,64.1,inactive
Or4k35 (olfactory receptor family 4 subfamily K member 35),2,108,38,inactive
Or4k35 (olfactory receptor family 4 subfamily K member 35),3,82.3,96.9,inactive
B230206H07Rik (RIKEN cDNA B230206H07 gene),1,84.5,84.6,inactive
B230206H07Rik (RIKEN cDNA B230206H07 gene),2,68.9,70.5,inactive
B230206H07Rik (RIKEN cDNA B230206H07 gene),3,94.4,96.2,inactive
Erc2 (ELKS/RAB6-interacting/CAST family member 2),1,98.2,97.5,inactive
Erc2 (ELKS/RAB6-interacting/CAST family member 2),2,73.7,59.9,inactive
Erc2 (ELKS/RAB6-interacting/CAST family member 2),3,89.4,87.9,inactive
Atl3 (atlastin GTPase 3),1,139,93.3,active
Atl3 (atlastin GTPase 3),2,57,71.8,inactive
Atl3 (atlastin GTPase 3),3,69.9,68.7,inactive
Smdt1 (single-pass membrane protein with aspartate rich tail 1),1,70.2,65.4,inactive
Smdt1 (single-pass membrane protein with aspartate rich tail 1),2,72.6,63.7,inactive
Smdt1 (single-pass membrane protein with aspartate rich tail 1),3,47.6,80.3,inactive
Rdx (radixin),1,64.1,72.2,inactive
Rdx (radixin),2,104,79.3,inactive
"Fam89b (family with sequence similarity 89, member B)",1,82.8,70.6,inactive
"Fam89b (family with sequence similarity 89, member B)",2,50.4,92.7,inactive
"Fam89b (family with sequence similarity 89, member B)",3,68.5,48.6,inactive
"Synrg (synergin, gamma)",1,153,85.2,active
"Synrg (synergin, gamma)",2,75.6,101,inactive
"Synrg (synergin, gamma)",3,81.6,89.4,inactive
Tmem41a (transmembrane protein 41a),1,115,70.8,inactive
Tmem41a (transmembrane protein 41a),2,116,91.9,inactive
Tmem41a (transmembrane protein 41a),3,104,96.1,inactive
Esm1 (endothelial cell-specific molecule 1),1,45.9,50.9,inactive
Esm1 (endothelial cell-specific molecule 1),2,77.4,70.5,inactive
Esm1 (endothelial cell-specific molecule 1),3,75.7,100,inactive
Nat8f1 (N-acetyltransferase 8 (GCN5-related) family member 1),1,89.2,56,inactive
Nat8f1 (N-acetyltransferase 8 (GCN5-related) family member 1),2,67.7,78.3,inactive
Nat8f1 (N-acetyltransferase 8 (GCN5-related) family member 1),3,126,70.5,active
Prdm8 (PR domain containing 8),1,78.9,69,inactive
Prdm8 (PR domain containing 8),2,75.2,74.9,inactive
Prdm8 (PR domain containing 8),3,80.5,90.5,inactive
Dmtn (dematin actin binding protein),1,47.1,41.9,inactive
Dmtn (dematin actin binding protein),2,71.3,70.5,inactive
Dmtn (dematin actin binding protein),3,70.1,77.2,inactive
Tafa2 (TAFA chemokine like family member 2),1,99.5,87.5,inactive
Tafa2 (TAFA chemokine like family member 2),2,69.4,79.4,inactive
Tafa2 (TAFA chemokine like family member 2),3,60,52.7,inactive
Cmtm4 (CKLF-like MARVEL transmembrane domain containing 4),1,120,95.2,inactive
Cmtm4 (CKLF-like MARVEL transmembrane domain containing 4),2,71.6,81,inactive
Cmtm4 (CKLF-like MARVEL transmembrane domain containing 4),3,121,133,active
Efnb2 (ephrin B2),1,62.6,73.9,inactive
Efnb2 (ephrin B2),2,105,83.1,inactive
Efnb2 (ephrin B2),3,85.4,64.4,inactive
Mindy3 (MINDY lysine 48 deubiquitinase 3),1,96.3,89.9,inactive
Mindy3 (MINDY lysine 48 deubiquitinase 3),2,50.3,54.3,inactive
Mindy3 (MINDY lysine 48 deubiquitinase 3),3,75.4,80.2,inactive
